# Percent effect of library compounds

Amino acid sequences for entries named in this document (tags omitted). Residues count along the entry.
UniProt A4I591, 1-473: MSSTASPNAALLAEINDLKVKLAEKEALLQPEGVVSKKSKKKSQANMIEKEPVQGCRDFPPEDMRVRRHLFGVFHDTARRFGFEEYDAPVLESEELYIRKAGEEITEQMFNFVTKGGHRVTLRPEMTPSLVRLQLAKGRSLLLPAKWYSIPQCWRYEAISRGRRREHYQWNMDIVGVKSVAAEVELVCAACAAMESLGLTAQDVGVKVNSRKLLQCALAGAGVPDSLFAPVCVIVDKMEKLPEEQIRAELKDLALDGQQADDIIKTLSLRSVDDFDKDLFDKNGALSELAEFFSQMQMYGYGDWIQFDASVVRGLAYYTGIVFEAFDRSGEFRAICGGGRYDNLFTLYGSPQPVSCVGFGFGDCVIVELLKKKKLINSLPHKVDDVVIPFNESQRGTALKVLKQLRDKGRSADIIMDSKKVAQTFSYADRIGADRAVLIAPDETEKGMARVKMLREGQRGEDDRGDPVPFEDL
UniProt P9WPC5, whole entry: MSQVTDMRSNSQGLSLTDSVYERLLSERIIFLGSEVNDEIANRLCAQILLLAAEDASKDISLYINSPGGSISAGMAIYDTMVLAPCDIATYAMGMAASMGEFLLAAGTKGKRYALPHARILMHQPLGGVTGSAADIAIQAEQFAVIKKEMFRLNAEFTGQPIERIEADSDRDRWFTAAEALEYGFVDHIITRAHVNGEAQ
UniProt P9WPC3, whole entry partner: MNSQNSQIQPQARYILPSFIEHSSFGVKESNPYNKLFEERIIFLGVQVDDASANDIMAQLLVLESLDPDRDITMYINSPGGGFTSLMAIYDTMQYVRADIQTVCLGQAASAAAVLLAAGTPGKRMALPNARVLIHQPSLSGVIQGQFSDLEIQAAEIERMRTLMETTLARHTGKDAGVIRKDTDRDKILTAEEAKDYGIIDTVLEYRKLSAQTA
UniProt Q4DA54, 1-478: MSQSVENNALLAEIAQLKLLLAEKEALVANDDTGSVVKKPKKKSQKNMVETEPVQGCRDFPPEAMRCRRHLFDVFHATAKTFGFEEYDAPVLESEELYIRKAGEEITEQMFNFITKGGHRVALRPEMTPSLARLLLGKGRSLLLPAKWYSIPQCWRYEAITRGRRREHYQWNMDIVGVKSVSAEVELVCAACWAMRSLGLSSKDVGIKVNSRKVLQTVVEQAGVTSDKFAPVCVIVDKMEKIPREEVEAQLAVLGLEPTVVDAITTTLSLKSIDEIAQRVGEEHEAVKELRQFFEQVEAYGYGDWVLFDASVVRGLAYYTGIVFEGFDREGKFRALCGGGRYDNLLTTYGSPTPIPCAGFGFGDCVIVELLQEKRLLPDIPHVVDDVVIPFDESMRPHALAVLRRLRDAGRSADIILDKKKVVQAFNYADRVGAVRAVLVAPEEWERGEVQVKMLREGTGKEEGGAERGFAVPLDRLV

Toxoplasma: 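Assay of Toxoplasma gondii numbers, read through their beta-galactosidase reporter with a colour substrate. Concentration: 10 µM. The record gives no direction; the compounds picked for IC50 retests had high values, so higher reads as fewer parasites. Of about 67,000 compounds tested this way, about 260 (0.38%) reached 50% or more in at least one test.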
T. brucei: 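Whole-parasite assay of Trypanosoma brucei over 72 hours; the read-out is not stated. Compounds at 30 µM. Direction is inferred from retests: higher values go with stronger inhibition. Values scatter widely below zero; nearly all retest evidence comes from the higher of the two concentrations used. Of about 64,000 compounds tested this way, about 940 (1.5%) reached 50% or more in at least one test.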
LiHisRS: 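Histidine-tRNA ligase, Leishmania infantum (UniProt A4I591). Enzyme assay of histidyl-tRNA synthetase; the read-out is not stated. Compounds at 30 µM. The record gives no direction; compounds that gave an IC50 in retests scored well above the rest, so higher reads as stronger inhibition. The assay is labelled LdHisRS but filed under L. infantum. Of about 69,000 compounds tested this way, about 410 (0.6%) reached 50% or more in at least one test.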
ClpP1P2: 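Protease assay of ClpP1P2, read by the AMC dye that it sets free. Target: ClpP1P2, Mycobacterium tuberculosis (UniProt P9WPC5 and UniProt P9WPC3). Compounds at 50 µM. Higher reads as stronger inhibition, judged from the few compounds that gave an IC50. Most other retested compounds had strongly negative values. Size under these conditions: about 69,000 compounds, about 10 of them at 50% or above in at least one test.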
TcHisRS: 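Histidine-tRNA ligase, Trypanosoma cruzi CL Brener (UniProt Q4DA54). Enzyme assay of histidyl-tRNA synthetase; the read-out is not stated. Tested at 30 µM. Higher reads as stronger inhibition (inferred: compounds with an IC50 in retests scored well above the rest). About 69,000 compounds were tested under these conditions; 0.045% (about 31) showed 50% or more at least once.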

Values are the deposited “Percent Effect”, in %.
The controls that fix the scale are not given in the record; negative values are as filed.
The compounds are a random part of those screened.
A dash means the value is not listed here; it may have been measured.

{"structure": "c1ccc(CN2CCN(c3ccc4nncn4n3)CC2)nc1", "Toxoplasma": -7.016, "LiHisRS": 15.38, "ClpP1P2": -10.03, "TcHisRS": 2.286}
{"structure": "COc1ccc(C(CNC(=O)Nc2cc(C)nn2C)N(C)C)cc1", "stereo": "stereo not given", "Toxoplasma": -34.05, "LiHisRS": 14.68, "ClpP1P2": -26.99, "TcHisRS": 2.941}
{"structure": "CCCC1CCCN(Cc2csc(-c3ncccn3)n2)CC1", "stereo": "stereo not given", "Toxoplasma": 15.34, "LiHisRS": 34.86, "ClpP1P2": -30.33, "TcHisRS": 14.29}
{"structure": "CNc1ncccc1CN1CCCCC1c1cc(C)n2ccnc2n1", "stereo": "stereo not given", "Toxoplasma": 1.81, "T. brucei": -2.592, "LiHisRS": 24.64, "ClpP1P2": -1.894, "TcHisRS": 7.692}
{"structure": "O=C(c1ccccc1O)N1CCn2c(nnc2C(F)(F)F)C1", "Toxoplasma": -2.835, "T. brucei": 1.064, "LiHisRS": 22.08, "ClpP1P2": -4.677, "TcHisRS": -2.463}
{"structure": "Cc1ccc(C2CC(=O)NCc3nc(N)sc32)cc1C", "stereo": "stereo not given", "Toxoplasma": 0.4511, "T. brucei": 0.1415, "LiHisRS": 16.44, "ClpP1P2": 1.63, "TcHisRS": 4.372}
{"structure": "CC(C)C(CNC(=O)CCn1cncn1)N1CCc2ccccc2C1", "stereo": "stereo not given", "Toxoplasma": -3.515, "T. brucei": -10.81, "LiHisRS": 6.667, "ClpP1P2": 1.51, "TcHisRS": 1.587}
{"structure": "CCNC(=O)Nc1cccc(F)c1C(=O)NC1CCCC1", "Toxoplasma": -6.132, "T. brucei": 6.893, "LiHisRS": 21.92, "ClpP1P2": 0.819, "TcHisRS": 2.105}
{"structure": "CN(CC1COCCO1)c1ncnc2cc(F)ccc12", "stereo": "stereo not given", "Toxoplasma": 19.73, "T. brucei": -108.9, "LiHisRS": 1.639, "ClpP1P2": -3.869, "TcHisRS": 1.288}
{"structure": "CC(C)N1CCCCC1c1nc(N(C)C)ncc1I.Cl", "stereo": "stereo not given", "Toxoplasma": 6.941, "T. brucei": 7.294}
{"structure": "CC(=O)N1CCC(NC(=O)NCc2ncc(-c3ccccc3)o2)CC1", "Toxoplasma": 2.419, "T. brucei": -34.54, "LiHisRS": 18.42, "ClpP1P2": -16.19, "TcHisRS": 7.602}
{"structure": "Cc1nc(C(=O)N2CCCC2c2c(C)nn(C)c2C)ccc1C#N", "stereo": "stereo not given", "Toxoplasma": 5.793, "T. brucei": 7.936, "LiHisRS": 5.405, "ClpP1P2": -1.881, "TcHisRS": -8.647}
{"structure": "Cc1cc(CN2CC[C@H]3OCC[C@@]3(C(=O)NCc3ccco3)C2)no1", "LiHisRS": 11.43, "ClpP1P2": 1.047, "TcHisRS": 8.824}
{"structure": "COC(C)(C)CNC(=O)N(C)Cc1nc(-c2ccccc2)c[nH]1", "Toxoplasma": -1.484, "T. brucei": -16.33, "LiHisRS": -4.167, "ClpP1P2": 0.5609, "TcHisRS": 5.263}
{"structure": "NC(=O)CN(Cc1cccc(Oc2ccccc2)c1)C(=O)C1CC1", "Toxoplasma": 3.21, "T. brucei": -13.04, "LiHisRS": 17.11, "ClpP1P2": 0.5117, "TcHisRS": 4.433}
{"structure": "Cc1ncnc2c1CCN(c1ccccn1)CC2.O=C(O)C(F)(F)F", "Toxoplasma": 0.3873, "T. brucei": -7.521}
{"structure": "CSc1[nH]nc(NC(=O)c2ccncc2)c1C#N", "Toxoplasma": 3.044, "T. brucei": -37.24, "LiHisRS": 12.09, "ClpP1P2": 1.485, "TcHisRS": 11.88}
{"structure": "CC(C)CCC(=O)NCCc1ccn(-c2ccccc2)n1", "Toxoplasma": 2.304, "LiHisRS": 17.09, "ClpP1P2": -4.16, "TcHisRS": 3.704}
{"structure": "COc1ccc(CN(C)[C@@H]2CN(C(=O)c3cccs3)C[C@H]2O)cc1", "Toxoplasma": -6.726, "T. brucei": 11.08, "LiHisRS": 8.333, "ClpP1P2": 1.836, "TcHisRS": 5.946}
{"structure": "FC(F)(F)c1cc(C2CCCN(c3ncccn3)C2)n2ccnc2n1", "stereo": "stereo not given", "Toxoplasma": -5.518, "T. brucei": 12.19, "LiHisRS": 10.74, "ClpP1P2": -32.84, "TcHisRS": 6}
{"structure": "CC(NC(=O)NCCCn1cncn1)c1ccc2c(c1)OCCO2", "stereo": "stereo not given", "Toxoplasma": 2.154, "T. brucei": 3.981, "LiHisRS": 9.231, "ClpP1P2": 8.831, "TcHisRS": 3.448}
{"structure": "O=C(c1csc(-c2ncccn2)n1)N1CCN2CCCCC2C1", "stereo": "stereo not given", "Toxoplasma": 0.767, "T. brucei": 9.676, "LiHisRS": 11.11, "ClpP1P2": -0.4446, "TcHisRS": 1.01}
{"structure": "CCN(C)c1ncnc2c1CCN(C(=O)Cc1ccccn1)CC2", "LiHisRS": 5.128, "ClpP1P2": -4.403, "TcHisRS": 1.22}
{"structure": "CC(=O)N1CCC12CCN(Cc1ccco1)CC2.O=C(O)C(F)(F)F", "Toxoplasma": -0.9246, "T. brucei": -19.23}
{"structure": "CN1CCN(C(=O)c2cncc(CC3CCCN(C)C3)c2)CC1", "stereo": "stereo not given", "Toxoplasma": 1.345, "T. brucei": -8.58, "LiHisRS": 0, "ClpP1P2": 8.076, "TcHisRS": 5.946}

Some entries from above, unchanged:

structure	Toxoplasma	T. brucei	LiHisRS	ClpP1P2	TcHisRS
CCN(C)c1ncnc2c1CCN(C(=O)Cc1ccccn1)CC2	-	-	5.128	-4.403	1.22
CC(C)CCC(=O)NCCc1ccn(-c2ccccc2)n1	2.304	-	17.09	-4.16	3.704

From ChEMBL document CHEMBL3988442, “University of Dundee, Small-Polar-MMV Screening Library” (2021).